# Experimental data reported in PubChem BioAssay AID2517 (National Center for Advancing Translational Sciences (NCATS), 2010).
# The chains behind the UniProt entries cited, without tags or fusion partners.
# UniProt P27695, whole entry, looked up: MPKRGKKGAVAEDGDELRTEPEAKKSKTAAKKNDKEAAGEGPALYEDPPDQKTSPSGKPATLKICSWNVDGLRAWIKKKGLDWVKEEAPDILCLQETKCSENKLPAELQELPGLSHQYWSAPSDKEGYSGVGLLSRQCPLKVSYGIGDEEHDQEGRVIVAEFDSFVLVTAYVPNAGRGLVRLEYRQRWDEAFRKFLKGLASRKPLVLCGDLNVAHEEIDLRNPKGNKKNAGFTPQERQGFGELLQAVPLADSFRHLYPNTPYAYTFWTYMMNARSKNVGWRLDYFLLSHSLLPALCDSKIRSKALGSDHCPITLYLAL
# Screen size: about 350,000 compounds; about 1,200 (0.34%) were called active. Inconclusive results, whose numbers are uncertain, are shown with a selection of clear calls. Calls come from the whole dose curve; as a rule, active = well fitted inhibition curve with a large enough effect; inconclusive = small, poorly fitted or top-dose-only effect; inactive = no such curve, though single readings can be large or run the other way. Where the call is inconclusive, the potency comes from a doubtful curve fit.
# Target: DNA repair nuclease/redox regulator APEX1 (Homo sapiens) (UniProt P27695)
# Assay: qHTS Assay for Inhibitors of the Human Apurinic/apyrimidinic Endonuclease 1 (APE1); note: nearly all actives have a fitted effect of over 55% in size;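 for activity change, negative = inhibition: plate controls were vehicle for no effect and reference inhibitor for full effect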
# Details: recombinant APE1, TAMRA/BHQ-2 abasic DNA cleavage fluorescence; activity change, negative = inhibition: at 65.8 µM (top of the series)
# Source text: The apurinic/apyrimidinic endonuclease APE1 is the primary mammalian enzyme responsible for the removal of abasic (or AP) sites in DNA and functions centrally in the base excision DNA repair (BER) pathway. […] Thus, targeting APE1 could improve the efficacy of current treatment paradigms by promoting selective sensitization or protection of diseased and normal cells, respectively.
# Inhibition of APE1 activity was screened by utilizing double-stranded short substrate containing tetrahydrofuran (THF) abasic site labeled with rhodamine-type fluorophore (TAMRA) at the 5'-end and with non-fluorescent Black Hole Quencher-2 (BHQ-2) at the opposing 3'-end. An increase in the fluorescence intensity due to incision of the abasic site by APE1 was used to measure the enzyme activity.
# NIH Chemical Genomics Center [NCGC]
# NIH Molecular Libraries Probe Centers Network [MLPCN]
# Assay Provider: David M. Wilson, III, National Institute on Aging, NIH
# Three uL of enzyme solution (0.75 nM APE1 final concentration) was dispensed to 1536-well Greiner black solid bottom plates. […] The plates were incubated for 15 min at room temperature, and then 1 uL of substrate solution (50 nM final concentration of TAMRA/BHQ-2) was added to start the reaction. The plates were immediately transferred into ViewLux High-throughput CCD imager (Perkin-Elmer) in order to measure the reaction progress in kinetic mode (three reads every 60 seconds) using 525 nm excitation and 598 nm emission fluorescence protocol. The fluorescence intensity difference between the third and the first time points was used to compute reaction progress. Results were normalized to buffer only columns and NSC13755 positive controls and negative control DMSO treated wells.
# Potency is the fitted concentration of half-maximal effect.
Compound,Potency,"activity change, negative = inhibition"
COc1cccc(NC(=O)CSc2nc3c(sc4ccccc43)c(=O)n2CCN(C)C)c1,"inconclusive: 31.6 µM [inhibitor, single point]",–
O=C(COc1ccc(Cl)cc1)Nc1ccc2[nH]ncc2c1,–,inactive: 9.51%
Cc1cccc(NC(=O)CNC(=O)Cn2ncc(Cl)c(Cl)c2=O)c1C,"inconclusive: 9.47 µM [inhibitor, partial curve]",–
N/C(=N\OC(=O)c1cc(-c2ccccc2)nc2ccccc12)c1ccccn1,"inconclusive: 31.6 µM [inhibitor, single point]",–
COC(=O)c1ccc(NCN2C(=O)C3C4CCC(C4)C3C2=O)cc1 (stereo not drawn),"inconclusive: 11.2 µM [inhibitor, full curve, poor fit]",–
C[C@H]1/C=C\CC(=O)OC[C@H](C)C(=O)N2CCC[C@@H]2C(=O)OC1,"inconclusive: 7.08 µM [inhibitor, single point]",–
c1coc(-c2nn3c(-c4ccco4)nnc3s2)c1,"inconclusive: 22.4 µM [inhibitor, partial curve]",–
COc1ccccc1CNc1ncnc2nc[nH]c12,"inconclusive: 5.01 µM [inhibitor, single point]",–
COCCCn1c(C(C)C)nc2oc3cc(OC)ccc3c(=O)c2c1=O,"inconclusive: 31.6 µM [inhibitor, single point]",–
COc1cccc(CNc2ccc3c(c2)ncn3C)c1OC,–,inactive: 8.93%
O=C1CN(C(=O)COC(=O)/C=C/c2ccco2)c2ccccc2N1,"inconclusive: 28.2 µM [inhibitor, partial curve]",–
O=C(CSc1ccc(Cl)cc1)OCC(=O)N1CCN(c2ccccc2)CC1,"inconclusive: 8.44 µM [inhibitor, single point]",–
COC(=O)c1sc(-c2ccc(C(C)(C)C)cc2)cc1NC(=O)c1ccccc1C(=O)O,–,inactive: -3.71%
CCOC(=O)C1Oc2ccccc2C(c2cccc3ccccc23)=C1C(=O)OC (stereo not drawn),"inconclusive: 35.5 µM [inhibitor, single point]",–
Cc1c(C(=O)N2CCOCC2)sc(NC(=O)c2ccc3c(c2)OCO3)c1C#N,"inconclusive: 1.26 µM [inhibitor, full curve]",–
Cc1cccc(C(=O)NNS(=O)(=O)c2ccccc2)c1O,–,inactive: 17.8%
CCOC(=O)c1nc(NCc2ccccc2C)c2ccccc2n1,"inconclusive: 31.6 µM [inhibitor, single point]",–
Cc1cccc(CSC2=NN3CCCC(=O)N=C3S2)c1,"inconclusive: 2.82 µM [inhibitor, partial curve, poor fit]",–
Cc1ccc([N+](=O)[O-])cc1NC1OC(CO)C(O)C1O (stereo not drawn),"inconclusive: 8.91 µM [inhibitor, single point]",–
Cc1c(C(=O)N2CCC2)oc2ccc(Br)cc12,–,inactive: 16.1%
O=C(CNC(=O)OCc1ccccc1)Oc1cc2oc(=O)cc(-c3ccccc3)c2cc1Cl,"inconclusive: 0.0079 µM [inhibitor, full curve, poor fit]",–
CCc1ccc(Nc2nnc(SCC(=O)NC(=O)CN3CCCC3=O)s2)cc1,active: 13.4 µM,–

Compound,Potency,"activity change, negative = inhibition"
Cc1ccc(-c2nc(CS(=O)CC(=O)NC3CCCC3)c(C)o2)cc1 (stereo not drawn),"inconclusive: 7.08 µM [inhibitor, single point]",–
C/C(CCN1CCCCc2nc(C)c(C)cc21)=N\O[C@@H](C)CN1CCCc2nc(C)c(C)cc21,"inconclusive: 10 µM [inhibitor, single point]",–
O=S(=O)(Nc1ncccn1)c1ccc(-n2cnnn2)cc1,"inconclusive: 39.8 µM [inhibitor, single point]",–
Cc1cc(C)n(-c2ccc([N+](=O)[O-])cc2-c2nn[nH]n2)n1,–,inactive: 10.3%
O=c1ccnc(Nc2ccc3c(c2)OCCO3)[nH]1,"inconclusive: 15.8 µM [inhibitor, single point]",–
Cc1cc(C)c(C)c(OCC(=O)NCc2nc(-c3ccccc3)no2)c1,"inconclusive: 44.7 µM [inhibitor, single point]",–
COc1ccc(Cl)cc1NC(=O)CN(C)C(=O)c1ccc(-n2nc(C)cc2C)cc1,–,inactive: -4.03%
CC(C)n1nnc2cc(C(=O)O)ccc21,–,inactive: 0.906%
CCOC(=O)CC(NC(=O)c1cccc2c1C(=O)N(Cc1cccnc1)C2)c1ccc(OCC)c(OC)c1 (stereo not drawn),"inconclusive: 39.8 µM [inhibitor, single point]",–
CCOC(=O)N1CCC(N2Cc3cccc(C(=O)N4CC(C)CC(C)C4)c3C2=O)CC1 (stereo not drawn),"inconclusive: 44.7 µM [inhibitor, single point]",–
Cc1ccc(S(=O)(=O)/N=C2\C=C(Nc3cccc(C(=O)O)c3)C(=O)c3ccccc32)cc1,–,inactive: -13.2%
Cc1ccccc1-c1nnc(-c2cccs2)o1,"inconclusive: 44.7 µM [inhibitor, single point]",–
COc1ccc(NC(=S)Nc2ccccc2)cc1,"inconclusive: 37.7 µM [inhibitor, single point]",–
O=C(COC(=O)CNC(=O)c1ccccc1)Nc1ccc(S(=O)(=O)N2CCOCC2)cc1,"inconclusive: 0.0355 µM [inhibitor, full curve, poor fit]",–
Cc1ccccc1CNC(=O)c1ccc(Cl)c([N+](=O)[O-])c1,"inconclusive: 39.8 µM [inhibitor, single point]",–
CN(C)c1nc(N)nc(CSc2ccccn2)n1,"inconclusive: 63.1 µM [inhibitor, partial curve, poor fit]",–
CC(C)(C)N1C(=O)[C@H]2[C@H]3[C@H](O)[C@H](O)C/C(=N/OCc4ccccc4)[C@@H]3CC[C@@H]2C1=O,"inconclusive: 7.94 µM [inhibitor, single point]",–
O=C(NCCCn1ccnc1)c1ccncc1,"inconclusive: 44.7 µM [inhibitor, single point]",–
Cn1c(=O)n(C)c2cc(/C=N/NC(=O)c3ccc(Cl)cc3Cl)ccc21,"inconclusive: 31.6 µM [inhibitor, partial curve, poor fit]",–
CCOC(=O)c1nnsc1N,"inconclusive: 7.08 µM [inhibitor, single point]",–
O=C1C(=Cc2cccn2-c2ccccc2)C(=O)c2ccccc21,–,inactive: -12.6%

# Whole records as entered above.
# `O=C(COC(=O)CNC(=O)c1ccccc1)Nc1ccc(S(=O)(=O)N2CCOCC2)cc1` is listed with Potency: inconclusive: 0.0355 µM [inhibitor, full curve, poor fit]
# `Cc1ccc(-c2nc(CS(=O)CC(=O)NC3CCCC3)c(C)o2)cc1` (stereo not drawn) is listed with Potency: inconclusive: 7.08 µM [inhibitor, single point]
